Data taken from patent US20230145342A1, “COMBINATORY TREATMENT” (AALTO UNIVERSITY FOUNDATION SR, priority 2020, published 2023).
At least one structure is not confirmed: it was looked up by name or label, or the drawing left a doubt.

Experiments:
Assay in all cases: Resistance profile of strain (Table 3)
Type in all cases: cell-based
[1] = tested on: Pseudomonas aeruginosa 5539; settings: strain 5539
[2] = tested on: Pseudomonas aeruginosa 2798 (ATCC 2798); settings: strain 2798 (ATCC 2798)
Source text: The effect of P[5]a on the penetration and efficacy of coadministered antibiotics Amikacin (a), Cefepime (b), Ceftazidime (c) and Meropenem (d) in MDR resistant clinical isolates were studied.

[3] = tested on: MDR-Acinetobacter baumannii 5542; settings: strain 5542 A. baumannii

C[C@@H](O)[C@H]1C(=O)N2C(C(=O)O)=C(SCCN=CN)C[C@H]12 [imipenem, Imipenem]
Antibiotic resistance (category) [1]: resistant
Antibiotic resistance (category) [2]: Aztreonam & Cefepime, Resistant to Ceftazidime, Cirpofloxacin,

CN(C)c1ccc(O)c2c1C[C@H]1C[C@H]3[C@H](N(C)C)C(O)=C(C(N)=O)C(=O)[C@@]3(O)C(O)=C1C2=O [Minocycline]
Antibiotic resistance (category) [3]: Resistant to Amikacin, Amoxicillin-clavulanate, Ampicillin,

C[C@H]1COc2c(N3CCN(C)CC3)c(F)cc3c(=O)c(C(=O)O)cn1c23 [Levofloxacin]
Antibiotic resistance (category) [2]: Aztreonam & Cefepime, Resistant to Ceftazidime, Cirpofloxacin,
Antibiotic resistance (category) [3]: Resistant to Amikacin, Amoxicillin-clavulanate, Ampicillin,
